{"source": "patent US20140045756A1", "binders": {"B1": {"name": "PGRN, endogenous, in lysates of human chondrocytes, P28799 18-593 (ligand)", "chain": "TRCPDGQFCPVACCLDPGGASYSCCRPLLDKWPTTLSRHLGGPCQVDAHCSAGHSCIFTVSGTSSCCPFPEAVACGDGHHCCPRGFHCSADGRSCFQRSGNNSVGAIQCPDSQFECPDFSTCCVMVDGSWGCCPMPQASCCEDRVHCCPHGAFCDLVHTRCITPTGTHPLAKKLPAQRTNRAVALSSSVMCPDARSRCPDGSTCCELPSGKYGCCPMPNATCCSDHLHCCPQDTVCDLIQSKCLSKENATTDLLTKLPAHTVGDVKCDMEVSCPDGYTCCRLQSGAWGCCPFTQAVCCEDHIHCCPAGFTCDTQKGTCEQGPHQVPWMEKAPAHLSLPDPQALKRDVPCDNVSSCPSSDTCCQLTSGEWGCCPIPEAVCCSDHQHCCPQGYTCVAEGQCQRGSEIVAGLEKMPARRASLSHPRDIGCDQHTSCPVGQTCCPSLGGSWACCQLPHAVCCEDRQHCCPAGYTCNVKARSCEKEVVSAQPATFLARSPHVGVKDVECGEGHFCHDNQTCCRDNRQGWACCPYRQGVCCADRRHCCPAGFRCAARGTKCLRREAPRWDAPLRDPALRQLL"}}, "key": {"[1]": {"target": "T1, TNFR2, endogenous, in lysates of human chondrocytes (human), P20333", "T1 chain": "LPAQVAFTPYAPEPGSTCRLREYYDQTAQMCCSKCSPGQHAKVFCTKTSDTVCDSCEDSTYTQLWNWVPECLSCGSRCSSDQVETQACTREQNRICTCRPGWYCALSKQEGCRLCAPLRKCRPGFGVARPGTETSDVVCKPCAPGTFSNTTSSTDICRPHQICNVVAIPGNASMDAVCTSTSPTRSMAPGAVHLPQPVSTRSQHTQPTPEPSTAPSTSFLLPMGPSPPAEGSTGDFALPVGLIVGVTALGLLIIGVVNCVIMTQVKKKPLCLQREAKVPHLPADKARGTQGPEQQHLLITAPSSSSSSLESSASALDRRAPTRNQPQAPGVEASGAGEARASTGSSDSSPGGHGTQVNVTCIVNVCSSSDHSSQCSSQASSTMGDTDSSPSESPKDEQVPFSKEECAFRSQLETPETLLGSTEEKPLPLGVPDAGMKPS", "assay": "co-immunoprecipitation from human chondrocyte lysates, Western blot", "details": "remark: other sources report otherwise"}, "[2]": {"target": "T2, TNFR1, endogenous, in lysates of human chondrocytes (human), P19438", "T2 chain": "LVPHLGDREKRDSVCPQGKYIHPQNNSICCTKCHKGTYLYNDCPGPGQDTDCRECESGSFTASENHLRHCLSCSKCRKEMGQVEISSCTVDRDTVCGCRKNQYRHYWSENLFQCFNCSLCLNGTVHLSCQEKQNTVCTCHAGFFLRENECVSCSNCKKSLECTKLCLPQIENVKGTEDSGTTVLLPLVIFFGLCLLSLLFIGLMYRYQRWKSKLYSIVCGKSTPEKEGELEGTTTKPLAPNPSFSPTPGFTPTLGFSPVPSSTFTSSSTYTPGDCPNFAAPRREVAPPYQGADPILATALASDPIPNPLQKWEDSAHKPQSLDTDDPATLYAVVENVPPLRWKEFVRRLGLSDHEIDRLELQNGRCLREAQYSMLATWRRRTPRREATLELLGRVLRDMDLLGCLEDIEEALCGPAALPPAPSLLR", "assay": "co-immunoprecipitation from human chondrocyte lysates, Western blot", "details": "remark: other sources report otherwise"}}, "note": "These are yes or no findings as the source states them, for the method shown. Binding seen in cells or lysates may run through a third protein. Some entries that bind do so weakly or less than the wild type."}
{"binder": "B1", "values": [{"measurement": "binding", "setting": "[1]", "value": "binds"}, {"measurement": "binding", "setting": "[2]", "value": "binds"}]}
